Assay results reported in PubChem BioAssay AID652054 (National Center for Advancing Translational Sciences (NCATS), 2013).
The whole screen tested about 360,000 compounds, of which about 9,100 (2.5%) were called active. Inconclusive results, whose numbers are uncertain, are shown with a selection of clear calls. Cut-off read from the data, not from the text of the source: active = max response below about -50%; inconclusive = no clear call, values can overlap the other calls; inactive = above that.

Amino acid sequences for entries named in this document (tags omitted).
UniProt P35462, whole entry, looked up: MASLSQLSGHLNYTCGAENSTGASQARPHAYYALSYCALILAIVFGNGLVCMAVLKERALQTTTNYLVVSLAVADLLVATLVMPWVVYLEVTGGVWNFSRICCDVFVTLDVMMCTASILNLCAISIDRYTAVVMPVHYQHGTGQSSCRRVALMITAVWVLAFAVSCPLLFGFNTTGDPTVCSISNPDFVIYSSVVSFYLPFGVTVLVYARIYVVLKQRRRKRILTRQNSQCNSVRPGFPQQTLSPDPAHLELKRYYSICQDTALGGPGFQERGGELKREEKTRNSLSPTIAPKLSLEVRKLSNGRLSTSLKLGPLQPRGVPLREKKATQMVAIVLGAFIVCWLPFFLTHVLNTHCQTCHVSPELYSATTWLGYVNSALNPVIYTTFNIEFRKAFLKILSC

What follows are compounds tested against D(3) dopamine receptor (Homo sapiens) (UniProt P35462) (assay: qHTS of D3 Dopamine Receptor Antagonist: qHTS). Conditions: D3R cells, DiscoveRx beta-arrestin luminescence, antagonist mode; stronger effect = lower value.
Outline: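 Cells plated overnight at 1500 cells/well, then exposed to library compounds with dopamine controls for 90 minutes at 37 degrees C. DiscoveRx reagent added for 30–60 minutes at room temperature; luminescence read, quantitative HTS format.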
% is set by controls: 0 for no effect and ±100 for the full control effect.

Max response, negative = inhibition, inactive:
COc1ccc(N(C(=O)c2snc(C(N)=O)c2N)C(C(=O)NCc2ccc(F)cc2)c2ccc(O)cc2)cc1 (configuration not stated) 4.86%
CCOc1ccc(CNc2ccc(N3CCOCC3)c(C(=O)O)c2)cc1 0%
CCc1ccc(-c2cn(-c3nc(C)cc(C)n3)c(=N)o2)cc1 4.96%
Cc1ccc(OCC(=O)Nc2cccc(S(=O)(=O)N3CCCCCC3)c2)c([N+](=O)[O-])n1 13.4%
O=c1[nH][nH]c(-c2ccccc2O)c1C(C[N+](=O)[O-])c1ccccc1 (configuration not stated) -4.69%
COc1cc(NC(=O)c2sc3ncn(CC(=O)N4CCCCC4C)c(=O)c3c2C)cc(OC)c1OC (configuration not stated) 25.3%
COC(=O)c1cccc(NS(=O)(=O)c2cccs2)c1C 8.84%
CC(O)(c1cccc(F)c1)c1nc(-c2ccncc2)cs1 (configuration not stated) -24.5%
O=C(COC(=O)C1C2CC3OC(=O)C1C3C2)Nc1ccc(Br)cc1 (configuration not stated) 21%
CC(C)(C)N1C(=O)c2ccc(C(=O)O)cc2C1=O -19.2%
Cn1cccc1CNC1CCCC1 39.3%
O=C(O)CCNC(=O)c1cncc(Br)c1 2.75%
CCN(CC)c1ccc(/C=N/NC(=O)c2ccc3nc[nH]c3c2)c(O)c1 4.17%
N#Cc1ccc2ccn(CC(=O)NCc3ccccc3)c2c1 -2.84%
O=C(NCc1ccccc1)c1ccc(NC(=O)C2CCC2)cc1 8.19%
O=C(COc1ccc([N+](=O)[O-])cc1)Nc1ccccc1C(=O)NC1CC1 -5.4%
Cc1ccc(-c2c(C(=O)O)c(C(=O)O)c3n2CSC3)cc1 29%
COc1ccc(C(=O)N/N=C/c2ccc(OC)c(CSc3ccccn3)c2)cc1 -14.8%
O=C(O)c1cccc(NC(=O)c2ccc3c(c2)C(=O)N(Cc2ccco2)C3=O)c1 7.46%
COC(=O)c1ccc(-c2ccco2)n1Cc1nc(-c2ccc(OC)c(OC)c2)oc1C -12.5%
CC(C)C(=O)Nc1ccc(-c2nc3cccnc3o2)cc1 -7.11%
Cc1cc(/C=C(/C#N)C(=O)Nc2ccccc2)c(C)n1-c1cccnc1 31.4%
CC(C)(C)C(=O)N(Cc1ccc(Cl)cc1)Cc1cccnc1 8.26%
Cc1ccc(NC(=O)CN2CCN(C(=O)C3CC3)CC2)c(F)c1 -13.3%
O=C1NC2(CCCCCC2)C(=O)N1Cc1ccc(Cl)cc1Cl -8.82%
O=[N+]([O-])/C(C(Cl)=C(Cl)Cl)=C1\Nc2ccccc2O1 12.5%
COc1cc([N+](=O)[O-])cc2sc(NC(C)=O)nc12 -15.9%
CN1CCN(CCNC(=O)Nc2ccc([N+](=O)[O-])cc2)CC1 -6.94%
Clc1cccc(-c2nn3c(Cn4cnc5ccccc54)nnc3s2)c1 29.4%
CC(NC(=O)c1ccc(Br)o1)C1CCCO1 (configuration not stated) 1.67%
COc1cccc(Cn2nnc(C(=O)Nc3cc(C)ccc3OC)c2N)c1 0%

Max response, negative = inhibition, active:
CCNCCC(=O)N1c2ccccc2Sc2ccc(C(F)(F)F)cc21 -69.5%
O=c1c(N=Nc2ccccc2)c[nH]n1-c1ccccc1 -61.9%
O=C(CNC(=S)N(CCCN1CCOCC1)Cc1cccs1)NCc1ccccc1Cl -58.5%
OC(CNCc1ccc(F)cc1)(c1ccc(F)cc1)c1ccc(F)cc1 -51.2%
COc1ccc(Cl)cc1C(=O)C1CCCN(Cc2cnc(N3CCOCC3)s2)C1 (configuration not stated) -79.1%
COc1ccc(-c2nc(C#N)c(NCCN(C)C)o2)cc1 -61.3%
CC(NS(=O)(=O)c1ccc(Br)cc1)C(c1cccs1)N1CCN(C)CC1 (configuration not stated) -52.2%
CC1CC(C)CN(CCOc2cccc3ccccc23)C1 (configuration not stated) -86.3%

Max response, negative = inhibition, inconclusive:
Cc1ccc(Cn2ncc(Cl)c(Cl)c2=O)cc1 -43.6%
CC1(C)CCN(Cc2ccccc2)C1CC#N (configuration not stated) -40.7%
CCn1cc(Cl)c(C(=O)Nc2nc3ccccc3n2CCN2CCCCC2)n1 -30.8%
O=C(CCn1c(=S)[nH]c2ccccc2c1=O)NCCCN1CCCC1=O -30.5%
Clc1cc(Br)ccc1OCCn1ccnc1 -34.5%
Cc1ccc(NC(=O)c2cc(S(=O)(=O)Nc3ccc(C)cc3)cs2)cc1 -32%
C=CCc1ccccc1OCC(O)CN1CCN(c2ccccc2F)CC1 (configuration not stated) -49.6%
Cc1nc2c(c(=O)n1CCC1=CCCCC1)c1nc3ccccc3nc1n2/N=C/c1ccco1 -41%
COc1ccc(/C=N\NC(=O)CCN2CCN(c3ccccc3)CC2)cc1OC -41.9%
O=C(COc1cccc2ccccc12)NCc1cccnc1 -31.4%
N=C1S/C(=C\c2ccc(-c3ccccc3C(=O)O)o2)C(=O)N1c1ccc2c(c1)OCO2 -33.9%
COc1ccc(S(=O)(=O)N2CCN(Cc3cccc(Cl)c3)CC2)cc1 -41%
OC(c1ccc2ccccc2c1)c1ncc(-c2cccc3ccccc23)[nH]1 (configuration not stated) -30.4%
OC(COCc1ccco1)CN1CCN(c2ccccc2)CC1 (configuration not stated) -31.5%
CC1Cc2ccccc2N1NC(=O)c1ccc(Cl)c(S(N)(=O)=O)c1 (configuration not stated) -37.8%
COC(=O)c1ccc(CN2CCN(Cc3ccc(F)cc3)C(CCO)C2)cc1 (configuration not stated) -42.3%
COc1ccc(Oc2nc(-c3ccccn3)ncc2OC)cc1 -44.9%
CCN1CCN(C(=O)c2ccc(C)c(S(=O)(=O)Nc3cccc(C)c3)c2)CC1 -44.5%
COc1ccc(OCC(=O)NNC(=O)c2c(-c3ccccc3Cl)noc2C)cc1 -43.8%
Cc1ccccc1OCC(=O)OCC(=O)N1CCc2ccccc21 -38.2%
Fc1ccc(CNCc2ccc(Br)cc2)cc1 -31%
Cc1ccc(N(C(=O)CCl)C(C(=O)NC2CCCCC2)c2cccnc2)cc1C (configuration not stated) -35.5%
COc1ccc(C2CC(c3c(O)cc(C)oc3=O)=NCCS2)c(OC)c1 (configuration not stated) -32.4%
Cn1nnc(NC(=S)NC(=O)c2ccccc2)n1 -36.7%
Nc1nc(Nc2cccc(Cl)c2)n[nH]1 -37.2%
CCC(=O)Nc1ccc(NC(=S)NC(=O)c2cc3ccccc3o2)cc1 -33.1%
O=C(O)[C@H]1CCCC[C@H]1C(=O)Nc1ccc(Nc2ccccc2)cc1 -31%
O=C(/C=C/c1ccccc1[N+](=O)[O-])Nc1cccc(S(=O)(=O)NC2=NCCCCC2)c1 -34.4%
Cc1ccc(C(=O)N2CCc3ccccc32)cc1NC(=O)c1ccco1 -45.8%
O=C(Nc1nc(-c2ccccn2)cs1)c1ccc(Cl)s1 -34.7%
COc1ccc(C2CC(c3ccccc3)=NN2C(=O)CCC(=O)O)cc1 (configuration not stated) -32%
CN(C)c1ccc(N=Nc2ccc(C(=O)O)cc2)cc1 -44.4%
O=C1NC(=O)C(=Cc2ccccc2[N+](=O)[O-])S1 -35.8%
COc1ccccc1NC(=O)c1c(N=Cc2c(O)ccc3ccccc23)cnn1C -39.4%
CC(C)(C)SC(=O)C[C@@H]1NS(=O)(=O)OC2CCCCC21 (some centres not stated) -36%
Cc1cc(=O)n2nc(N3CCCC(C(=O)NCCc4ccc(Cl)cc4)C3)sc2n1 (configuration not stated) -38.4%
CCCCCCCCCCCNC(=O)c1ccoc1C -42.8%
COc1ccc(OC)c(C(=O)NC(CC(N)=O)c2ccc(N3CCC(N4CCCC4)CC3)c([N+](=O)[O-])c2)c1 (configuration not stated) -35.2%
O=[N+]([O-])c1ccc(O)c(/C=N/Nc2nc3ccccc3[nH]2)c1 -49.8%
CCCc1cc(C(=O)Nc2cccc(Cl)c2C)no1 -31.8%
CC(=O)Nc1ccc(NC(=O)CSc2nc3ccccc3o2)cc1 -36.6%
O=C(CCC1CCCN(C2C3CC4CC(C3)CC2C4)C1)NCc1ccc(F)c(F)c1 (configuration not stated) -30.8%
CCOC(=O)C1=C(Nc2ccc(OC)cc2)C(N)=NC1=N -44.4%
Cc1ccc(-n2nnnc2C(Cl)(Cl)c2nnnn2-c2ccc(C)cc2)cc1 -42.2%
CCCCNC(=O)C1(N2C(=O)c3ccccc3C2=O)CCCC1 -34.9%
Cc1ccc(SC(CC(=O)c2ccc(C)cc2)C(=O)O)cc1 (configuration not stated) -31.7%
CC(=O)c1ccc(OCC(O)CN2CCN(c3ccc(F)cc3)CC2)cc1 (configuration not stated) -30.5%
Cc1cc[n+](C(C)C(=O)c2ccc(Cl)cc2)cc1 (configuration not stated) -40.6%
O=C(O)CC(C(=O)O)n1nc(-c2ccccc2)cc1-c1ccccc1 (configuration not stated) -33.3%
O=C(OCCN1CCCCC1)c1ccc(O)cc1 -40.2%
Cc1nnc(SCC(=O)c2ccc(S(=O)(=O)N3CCOCC3)cc2)n1-c1ccccc1 -41.7%
Cc1nn(C)c(C(=O)NC(=S)Nc2ccccc2O)c1Cl -36.2%
Clc1cccc(Cl)c1Cn1cnc2c(NCc3ccco3)ncnc21 -34.5%

A draw from above in order of number of heavy atoms, descending.
Max response, negative = inhibition, inconclusive:
COc1ccc(OC)c(C(=O)NC(CC(N)=O)c2ccc(N3CCC(N4CCCC4)CC3)c([N+](=O)[O-])c2)c1 (configuration not stated) -35.2%
CCC(=O)Nc1ccc(NC(=S)NC(=O)c2cc3ccccc3o2)cc1 -33.1%
CC(=O)Nc1ccc(NC(=O)CSc2nc3ccccc3o2)cc1 -36.6%
Cc1nn(C)c(C(=O)NC(=S)Nc2ccccc2O)c1Cl -36.2%
CCCc1cc(C(=O)Nc2cccc(Cl)c2C)no1 -31.8%
